{"source": "PubChem BioAssay AID743121, NCATS, 2013", "purpose": "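Genes whose silencing strengthens cell killing by camptothecin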 (primary screen)", "cell system": "MDA-MB-231 cells, a human breast cancer line", "reagents": "single siRNA against human genes, 20 nM siRNA (0.8 pmol per well)", "duration": "120 h (drug added 48 h after transfection, read 72 h later)", "treatment": "camptothecin 20 nM (about EC30) for 72 h; vehicle 0.1% DMSO in parallel plates", "detection": "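CellTiter-Glo ATP signal, scaled to control siRNA as percent viability; sensitisation given as log2 of untreated divided by camptothecin-treated viability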", "scale": "log2 vehicle/camptothecin viability: higher = stronger sensitisation to camptothecin", "hit rule": "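Active genes have an RSA gene-level p-value below 0.001, computed from the ratios of their separate siRNAs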", "note": "The deposit covers about 26,000 reagents; below is an unselected part. Over the whole deposit, 167 (0.63%) are marked active. 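Calls are per gene from RSA p-values that are not deposited; an individual active-marked siRNA can sensitise only weakly.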 A number with no mark means an inactive call. Reagents against one gene are numbered here. Not all columns of the deposit are shown. No sequences are given here."}
{"gene":"ANAPC5 (anaphase promoting complex subunit 5)","reagent":1,"log2 vehicle/camptothecin viability":-0.056}
{"gene":"ANAPC5 (anaphase promoting complex subunit 5)","reagent":2,"log2 vehicle/camptothecin viability":-0.178}
{"gene":"ANAPC5 (anaphase promoting complex subunit 5)","reagent":3,"log2 vehicle/camptothecin viability":0.628}
{"gene":"ANAPC5 (anaphase promoting complex subunit 5)","reagent":4,"log2 vehicle/camptothecin viability":-0.594}
{"gene":"MEGF8 (multiple EGF like domains 8)","reagent":1,"log2 vehicle/camptothecin viability":-0.511}
{"gene":"MEGF8 (multiple EGF like domains 8)","reagent":2,"log2 vehicle/camptothecin viability":0.0288}
{"gene":"MEGF8 (multiple EGF like domains 8)","reagent":3,"log2 vehicle/camptothecin viability":-0.181}
{"gene":"MEGF8 (multiple EGF like domains 8)","reagent":4,"log2 vehicle/camptothecin viability":-0.0572}
{"gene":"PTPRZ1 (protein tyrosine phosphatase receptor type Z1)","reagent":1,"log2 vehicle/camptothecin viability":-0.295}
{"gene":"PTPRZ1 (protein tyrosine phosphatase receptor type Z1)","reagent":2,"log2 vehicle/camptothecin viability":-0.454}
{"gene":"PTPRZ1 (protein tyrosine phosphatase receptor type Z1)","reagent":3,"log2 vehicle/camptothecin viability":0.195}
{"gene":"PTPRZ1 (protein tyrosine phosphatase receptor type Z1)","reagent":4,"log2 vehicle/camptothecin viability":-0.556}
{"gene":"BTN3A2 (butyrophilin subfamily 3 member A2)","reagent":1,"log2 vehicle/camptothecin viability":-0.313}
{"gene":"BTN3A2 (butyrophilin subfamily 3 member A2)","reagent":2,"log2 vehicle/camptothecin viability":-0.125}
{"gene":"BTN3A2 (butyrophilin subfamily 3 member A2)","reagent":3,"log2 vehicle/camptothecin viability":-0.321}
{"gene":"BTN3A2 (butyrophilin subfamily 3 member A2)","reagent":4,"log2 vehicle/camptothecin viability":-0.159}
{"gene":"HHLA1 (HHLA1 neighbor of OC90)","reagent":1,"log2 vehicle/camptothecin viability":0.0811}
{"gene":"HHLA1 (HHLA1 neighbor of OC90)","reagent":2,"log2 vehicle/camptothecin viability":-0.419}
{"gene":"HHLA1 (HHLA1 neighbor of OC90)","reagent":3,"log2 vehicle/camptothecin viability":0.107}
{"gene":"PCSK1N (proprotein convertase subtilisin/kexin type 1 inhibitor)","reagent":1,"log2 vehicle/camptothecin viability":-0.255}
{"gene":"PCSK1N (proprotein convertase subtilisin/kexin type 1 inhibitor)","reagent":2,"log2 vehicle/camptothecin viability":-0.000447}
{"gene":"PCSK1N (proprotein convertase subtilisin/kexin type 1 inhibitor)","reagent":3,"log2 vehicle/camptothecin viability":-0.329}
{"gene":"MAMDC4 (MAM domain containing 4)","reagent":1,"log2 vehicle/camptothecin viability":-0.489}
{"gene":"MAMDC4 (MAM domain containing 4)","reagent":2,"log2 vehicle/camptothecin viability":-0.529}
{"gene":"MAMDC4 (MAM domain containing 4)","reagent":3,"log2 vehicle/camptothecin viability":-0.0766}
{"gene":"MAMDC4 (MAM domain containing 4)","reagent":4,"log2 vehicle/camptothecin viability":-0.388}
{"gene":"LCAT (lecithin-cholesterol acyltransferase)","reagent":1,"log2 vehicle/camptothecin viability":-0.511}
{"gene":"LCAT (lecithin-cholesterol acyltransferase)","reagent":2,"log2 vehicle/camptothecin viability":-0.116}
{"gene":"LCAT (lecithin-cholesterol acyltransferase)","reagent":3,"log2 vehicle/camptothecin viability":-0.191}
{"gene":"RAB7A (RAB7A, member RAS oncogene family)","reagent":1,"log2 vehicle/camptothecin viability":0.391}
{"gene":"RAB7A (RAB7A, member RAS oncogene family)","reagent":2,"log2 vehicle/camptothecin viability":-0.146}
{"gene":"RAB7A (RAB7A, member RAS oncogene family)","reagent":3,"log2 vehicle/camptothecin viability":0.786}
{"gene":"RAB7A (RAB7A, member RAS oncogene family)","reagent":4,"log2 vehicle/camptothecin viability":-0.208}
{"gene":"CIB2 (calcium and integrin binding family member 2)","reagent":1,"log2 vehicle/camptothecin viability":-0.388}
{"gene":"CIB2 (calcium and integrin binding family member 2)","reagent":2,"log2 vehicle/camptothecin viability":-0.425}
{"gene":"CIB2 (calcium and integrin binding family member 2)","reagent":3,"log2 vehicle/camptothecin viability":0.126}
{"gene":"CIB2 (calcium and integrin binding family member 2)","reagent":4,"log2 vehicle/camptothecin viability":-0.235}

Targets listed so far whose gene name begins with P or p:
{"gene":"PTPRZ1 (protein tyrosine phosphatase receptor type Z1)","reagent":1,"log2 vehicle/camptothecin viability":-0.295}
{"gene":"PTPRZ1 (protein tyrosine phosphatase receptor type Z1)","reagent":2,"log2 vehicle/camptothecin viability":-0.454}
{"gene":"PTPRZ1 (protein tyrosine phosphatase receptor type Z1)","reagent":3,"log2 vehicle/camptothecin viability":0.195}
{"gene":"PTPRZ1 (protein tyrosine phosphatase receptor type Z1)","reagent":4,"log2 vehicle/camptothecin viability":-0.556}
{"gene":"PCSK1N (proprotein convertase subtilisin/kexin type 1 inhibitor)","reagent":1,"log2 vehicle/camptothecin viability":-0.255}
{"gene":"PCSK1N (proprotein convertase subtilisin/kexin type 1 inhibitor)","reagent":2,"log2 vehicle/camptothecin viability":-0.000447}
{"gene":"PCSK1N (proprotein convertase subtilisin/kexin type 1 inhibitor)","reagent":3,"log2 vehicle/camptothecin viability":-0.329}
